The effect of the compound repeats well; differences between the knockouts mostly do not.
System: SKBR3
Assay: relative cell number vs DMSO control (72 h) (% of DMSO); higher = less growth inhibition (more cells)
Description: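 QMAP-Seq: a pool of 5 breast cancer cell lines (ZR-75-1, SKBR3, HCC-38, MDA-MB-231, BT-20), each carrying 12 doxycycline-inducible Cas9 sgRNA perturbations (11 knockouts plus non-targeting sgNT), was treated with compounds for 72 h at four 10-fold doses (10 nM-10 uM or 1 nM-1 uM range). Barcodes were amplified and sequenced, and cell number was interpolated from 293T spike-in standard curves. The result is expressed as % of the median of DMSO wells. Two biological replicates.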

O=c1ncccn1[C@@H]1O[C@H](CO)[C@@H](O)[C@H]1O [Zebularine]
Conditions	relative cell number
sgRNA knockout: sgATF3, 10 nM	119
sgRNA knockout: sgATF3, 100 nM	99.1
sgRNA knockout: sgATF3, 1000 nM	97
sgRNA knockout: sgATF3, 10000 nM	99.7
sgRNA knockout: sgATF4, 10 nM	104
sgRNA knockout: sgATF4, 100 nM	92.6
sgRNA knockout: sgATF4, 1000 nM	102.3
sgRNA knockout: sgATF4, 10000 nM	113
sgRNA knockout: sgATF6, 10 nM	93.3
sgRNA knockout: sgATF6, 100 nM	98.4
sgRNA knockout: sgATF6, 1000 nM	98.5
sgRNA knockout: sgATF6, 10000 nM	88.15
sgRNA knockout: sgATG7, 10 nM	121
sgRNA knockout: sgATG7, 100 nM	105
sgRNA knockout: sgATG7, 1000 nM	78.7
sgRNA knockout: sgATG7, 10000 nM	108
sgRNA knockout: sgERN1, 10 nM	125
sgRNA knockout: sgERN1, 100 nM	109
sgRNA knockout: sgERN1, 1000 nM	83
sgRNA knockout: sgERN1, 10000 nM	104
sgRNA knockout: sgHSF1, 10 nM	107
sgRNA knockout: sgHSF1, 100 nM	98.4
sgRNA knockout: sgHSF1, 1000 nM	98.3
sgRNA knockout: sgHSF1, 10000 nM	106.7
sgRNA knockout: sgHSF2, 10 nM	129
sgRNA knockout: sgHSF2, 100 nM	91.6
sgRNA knockout: sgHSF2, 1000 nM	92.2
sgRNA knockout: sgHSF2, 10000 nM	121
sgRNA knockout: sgKEAP1, 10 nM	103
sgRNA knockout: sgKEAP1, 100 nM	108
sgRNA knockout: sgKEAP1, 1000 nM	89.5
sgRNA knockout: sgKEAP1, 10000 nM	124
sgRNA knockout: sgNFE2L2, 10 nM	119
sgRNA knockout: sgNFE2L2, 100 nM	105
sgRNA knockout: sgNFE2L2, 1000 nM	108
sgRNA knockout: sgNFE2L2, 10000 nM	111
sgRNA knockout: sgSLC35F2, 10 nM	116
sgRNA knockout: sgSLC35F2, 100 nM	101
sgRNA knockout: sgSLC35F2, 1000 nM	82.2
sgRNA knockout: sgSLC35F2, 10000 nM	84.4
sgRNA knockout: sgXBP1, 10 nM	106
sgRNA knockout: sgXBP1, 100 nM	94.3
sgRNA knockout: sgXBP1, 1000 nM	83.9
sgRNA knockout: sgXBP1, 10000 nM	97.1

C[C@@H](Oc1cc(-n2cnc3ccc(CN4CCN(C)CC4)cc32)sc1C(N)=O)c1ccccc1C(F)(F)F
Conditions	relative cell number
sgRNA knockout: sgATF3, 10 nM	17.7
sgRNA knockout: sgATF3, 100 nM	11.8
sgRNA knockout: sgATF3, 1000 nM	12.6
sgRNA knockout: sgATF3, 10000 nM	32.1
sgRNA knockout: sgATF4, 10 nM	16.8
sgRNA knockout: sgATF4, 100 nM	8
sgRNA knockout: sgATF4, 1000 nM	23.7
sgRNA knockout: sgATF4, 10000 nM	26.1
sgRNA knockout: sgATF6, 10 nM	11.2
sgRNA knockout: sgATF6, 100 nM	12.9
sgRNA knockout: sgATF6, 1000 nM	20.7
sgRNA knockout: sgATF6, 10000 nM	29.5
sgRNA knockout: sgATG7, 10 nM	16
sgRNA knockout: sgATG7, 100 nM	10.7
sgRNA knockout: sgATG7, 1000 nM	20.1
sgRNA knockout: sgATG7, 10000 nM	19
sgRNA knockout: sgERN1, 10 nM	18.5
sgRNA knockout: sgERN1, 100 nM	13.9
sgRNA knockout: sgERN1, 1000 nM	9.72
sgRNA knockout: sgERN1, 10000 nM	33.5
sgRNA knockout: sgHSF1, 10 nM	17.3
sgRNA knockout: sgHSF1, 100 nM	6.08
sgRNA knockout: sgHSF1, 1000 nM	23.7
sgRNA knockout: sgHSF1, 10000 nM	20.6
sgRNA knockout: sgHSF2, 10 nM	22.8
sgRNA knockout: sgHSF2, 100 nM	15.3
sgRNA knockout: sgHSF2, 1000 nM	26.7
sgRNA knockout: sgHSF2, 10000 nM	30.4
sgRNA knockout: sgKEAP1, 10 nM	13.2
sgRNA knockout: sgKEAP1, 100 nM	8.6
sgRNA knockout: sgKEAP1, 1000 nM	14.9
sgRNA knockout: sgKEAP1, 10000 nM	22.5
sgRNA knockout: sgNFE2L2, 10 nM	16.7
sgRNA knockout: sgNFE2L2, 100 nM	7.16
sgRNA knockout: sgNFE2L2, 1000 nM	20.1
sgRNA knockout: sgNFE2L2, 10000 nM	28.6
sgRNA knockout: sgSLC35F2, 10 nM	13.1
sgRNA knockout: sgSLC35F2, 100 nM	12.3
sgRNA knockout: sgSLC35F2, 1000 nM	16.8
sgRNA knockout: sgSLC35F2, 10000 nM	26.3
sgRNA knockout: sgXBP1, 10 nM	23.2
sgRNA knockout: sgXBP1, 100 nM	12
sgRNA knockout: sgXBP1, 1000 nM	17.2
sgRNA knockout: sgXBP1, 10000 nM	22.2

CNC(=O)c1cc(Oc2ccc(NC(=O)Nc3ccc(Cl)c(C(F)(F)F)c3)c(F)c2)ccn1 [Regorafenib]
Conditions	relative cell number
sgRNA knockout: sgATF3, 10 nM	102
sgRNA knockout: sgATF3, 100 nM	108
sgRNA knockout: sgATF3, 1000 nM	122
sgRNA knockout: sgATF3, 10000 nM	40.5
sgRNA knockout: sgATF4, 10 nM	98.7
sgRNA knockout: sgATF4, 100 nM	99.3
sgRNA knockout: sgATF4, 1000 nM	96.9
sgRNA knockout: sgATF4, 10000 nM	35.8
sgRNA knockout: sgATF6, 10 nM	97.1
sgRNA knockout: sgATF6, 100 nM	129
sgRNA knockout: sgATF6, 1000 nM	107
sgRNA knockout: sgATF6, 10000 nM	32.3
sgRNA knockout: sgATG7, 10 nM	95.2
sgRNA knockout: sgATG7, 100 nM	109
sgRNA knockout: sgATG7, 1000 nM	128
sgRNA knockout: sgATG7, 10000 nM	40.4
sgRNA knockout: sgERN1, 10 nM	96.9
sgRNA knockout: sgERN1, 100 nM	93
sgRNA knockout: sgERN1, 1000 nM	116
sgRNA knockout: sgERN1, 10000 nM	54.5
sgRNA knockout: sgHSF1, 10 nM	97.6
sgRNA knockout: sgHSF1, 100 nM	113
sgRNA knockout: sgHSF1, 1000 nM	111
sgRNA knockout: sgHSF1, 10000 nM	38.9
sgRNA knockout: sgHSF2, 10 nM	88.1
sgRNA knockout: sgHSF2, 100 nM	97.9
sgRNA knockout: sgHSF2, 1000 nM	118
sgRNA knockout: sgHSF2, 10000 nM	36.8
sgRNA knockout: sgKEAP1, 10 nM	81.1
sgRNA knockout: sgKEAP1, 100 nM	107
sgRNA knockout: sgKEAP1, 1000 nM	113
sgRNA knockout: sgKEAP1, 10000 nM	34.7
sgRNA knockout: sgNFE2L2, 10 nM	110
sgRNA knockout: sgNFE2L2, 100 nM	110
sgRNA knockout: sgNFE2L2, 1000 nM	102
sgRNA knockout: sgNFE2L2, 10000 nM	37.5
sgRNA knockout: sgSLC35F2, 10 nM	92.2
sgRNA knockout: sgSLC35F2, 100 nM	99.9
sgRNA knockout: sgSLC35F2, 1000 nM	99.3
sgRNA knockout: sgSLC35F2, 10000 nM	36.7
sgRNA knockout: sgXBP1, 10 nM	128
sgRNA knockout: sgXBP1, 100 nM	107
sgRNA knockout: sgXBP1, 1000 nM	122
sgRNA knockout: sgXBP1, 10000 nM	49.5
